# PubChem BioAssay AID1347423 (Functional Genomics Laboratory (NCATS/FGL), 2020)
# Hit rate of the full screen: of about 52,000 sequences, about 210 (0.4%) were called active.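 The calls were made as follows: active = gene whose silencing raises cell survival under the drug, median off-target-corrected z-score across its silencing RNAs 2 or more; inactive = the rest.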 Some of the results follow.
# Test: Resistance to Poly (ADP-Ribose) Polymerase inhibitor: Gene Identification via Genome-wide siRNA Screen
# Details: mouse BRCA2 R2336H ES cells, olaparib, CellTiter-Glo viability; hits give high values
# How it was run: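 Mouse BRCA2 R2336H ES cells were reverse-transfected with siRNA (20 nM final), treated at 48 h with 500 nM olaparib, and read by CellTiter-Glo after 72 h. Scores: MAD-based z per siRNA, median per gene, seed off-target correction.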
row,Sequence,z-score
1,GGUAGAAUUGUGAUCUCAGTT against Bcdo2,inactive: -0.24
2,GGCAGGUUUUUGAACUGGUTT against Olfr725,inactive: -0.89
3,GGGAACCUCUGAAAAGAGGTT against LOC433365,inactive: 0.538
4,CCUGACUCCUACUCAAUUATT against Hcrtr1,inactive: 0.231
5,GGUGUCAAUCAUGUUGUCATT against Susd2,inactive: -1.15
6,GGCGCAUCCAAACUUUGAUTT against Kcnq3,inactive: 0.167
7,GGAUGUGAAGGAUGGGAAGTT against Rps18,inactive: -3.24
8,GCCAGGAGUCCUUUAGGAATT against 8430420C20Rik,inactive: 2.68
9,GCGAGUAUUCAGAUCAUACTT against Wsb2,inactive: -1.3
10,GCGUGGUUACGCUAUGAUCTT against 2410008J05Rik,inactive: 0.325
11,GGCUUGAAGCCCUAGUACUTT against Tmprss8,inactive: -0.174
12,GGAAAUUUUUGGUGAAAGGTT against Dnajb7,inactive: -0.272
13,GGAACAAAGUUAAAUCCAATT against 4930405J24Rik,inactive: -1.84
14,GGUCAUCCUGGACAAUCUCTT against Syt6,inactive: 0.707
15,GGAAAGAGAGAAGAAAUAGTT against Lmo2,inactive: 0.527
16,GCAGAUUGAGCCUGUCAAUTT against Ddx39,inactive: -0.13
17,GCUUAGAGCUUCAUAUAGCTT against Tlr12,inactive: 0.0538
18,GGCUCGUGAUCGAAAUCUUTT against Il1rl1l,inactive: 0.5
19,CCGAUCACUUUAUCUUCACTT against A930011F22Rik,inactive: 1.28
20,GGCUUCAAAAACGACUAAATT against 4921537D05Rik,inactive: -1.03
21,CCUCGUUCAUACGACAGAATT against BC062951,inactive: -0.447
22,GGAAAAGAUACGGAAGAUUTT against Acpp,active: 0.216
23,GGAUUUUGGCCUUUCCAUUTT against Ly86,inactive: 1.78
24,UGAUUUCAACAAGUGGCAUTT against Olfr730,inactive: 2.37
25,GGAACAAGAGAAGAUCCUCTT against Cd209b,inactive: 1.63
26,CCUAUGUCAUUUGUAAUGATT against A630018P17Rik,inactive: 0.312

row,Sequence,z-score
1,CCAAGGUAAAUUACUAUGATT against 4930519N13Rik,inactive: 0.142
2,GCAUUUAUCACAUGGACAUTT against Tle4,inactive: -1.14
3,GGACAACCAGAAAUGUAUGTT against Grid1,inactive: -0.385
4,CCAAUGAAGAUCCUUCCACTT against Gabra3,inactive: -0.582
5,GGACACACAAGAGAAGAUCTT against Thop1,inactive: -0.612
6,GGAUGUCCUUGACUUUAAATT against Atp6v0a4,inactive: -0.208
7,CGGCAUCGUCAGCUAUUAATT against Pip5k1a,inactive: -1.61
8,GGGCUACACUUCUGUCUACTT against Nanos3,inactive: -1.59
9,GGCGAGUUCAGGAGUUUACTT against Fmnl1,inactive: -0.146
10,GGUCCUGAAUUUCAUCCUUTT against Galgt2,inactive: 1.04
11,GCGAGCUAAACAUUCUGAATT against Mgea6,inactive: 0.68
12,CCUGAGACUAGACAGAUGGTT against Hmga1,inactive: -1.16
13,GGAUAUAAAGGGAGCUUUUTT against Olfr397,inactive: -1.25
14,GGAAGUAUGUGGAUAAAUUTT against Usp5,inactive: -2.84
15,GGAUUAUUCCCUUUCUUCCTT against Sh3md1,inactive: 0.138
16,GGAGCUGGCAGACAUCACUTT against Ube2e1,inactive: -0.385
17,GGAUCACUGACUUUGAAUUTT against 2700078K21Rik,inactive: 1.28
18,GGGAACAAGGAACUCAAAGTT against Igsf4a,inactive: 0.405
19,GGAUGAGAAUAUUGAAAGATT against 4932415M13,inactive: -0.114
20,GGUUUUUUUUCCUUUCCCUTT against Frs3,inactive: -0.159
21,GGUUCUGGCUCCUUGGACUTT against Oscar,inactive: -3.21
22,GCACGAGAGUCUGAAGGAUTT against Mns1,inactive: -1.29
23,GCCACUCGGAGAUUUUUCATT against Slc15a4,inactive: -0.468
24,GCAAUCCUCUUCACCCUCUTT against Olfr1495,inactive: -2.21
25,GCCUUUAAUUUUGACAACUTT against V1rh20,inactive: 1.16
26,GCACUAAUCAACUUAAGUCTT against Zfpn1a5,inactive: 0.715

# Retrieved one by one from the entries so far, four records:
row,Sequence,z-score
15,GGAUUAUUCCCUUUCUUCCTT against Sh3md1,inactive: 0.138
1,CCAAGGUAAAUUACUAUGATT against 4930519N13Rik,inactive: 0.142
18,GGGAACAAGGAACUCAAAGTT against Igsf4a,inactive: 0.405
19,GGAUGAGAAUAUUGAAAGATT against 4932415M13,inactive: -0.114

# Further results follow.

row,Sequence,z-score
1,GGAAAAAGUGAAAACCUUGTT against Jun,inactive: 0.897
2,GGAGGAAAGAAGAAAUAUCTT against Parvg,inactive: -0.373
3,CGUUGGUAUUUCCUUUGUATT against Slfn4,inactive: -0.847
4,GGAAUGUUACAUUUCAGUUTT against Adam1a,inactive: 0.191
5,GGUGUUCCAAGAGUCGUCATT against BC030867,inactive: -0.341
6,GCAGAUCAUUAAGAUCCGATT against Ruvbl1,inactive: 0.412
7,GUCCUCGUAGGAACAGCAUTT against Olfr1265,inactive: 1.15
8,GGGUUACCAGUUUGAGGAGTT against Pex5,inactive: 0.817
9,GGUCAAGUACAAAAGAGAUTT against 1200007O21Rik,inactive: 0.255
10,GGUGCAAAUGUUCUCAUCUTT against AI317395,inactive: 3.44
11,GUAUUGGAUACGAAGCAGATT against Defb2,inactive: -0.461
12,CGGAAAAUCCUGCCUCCCUTT against 4930429A08Rik,inactive: 0.212
13,CGCGGUGUUCGACAUCUUGTT against AI326906,inactive: 0.615
14,GGAACUUGAAAGAGAUUCUTT against Usp28,inactive: -0.198
15,GGACAGUGACCAAUUAUUUTT against Tacr1,inactive: -0.588
16,CCCAGCCGUAACUUAUGAGTT against Pga5,inactive: 0.133
17,GGUGCUUAGAGUCAAGAAUTT against 2600017H02Rik,inactive: 1.28
18,CGAUGGUGAUUAUCUAAAATT against Tm4sf4,inactive: -0.302
19,GGUUGUUCACUAGGUCACUTT against Creg2,inactive: 0.0477
20,GGACAAAGUCACAGAGUCCTT against Pres,inactive: -0.992
21,GGCUAUGGGAAUCAUGAAUTT against Hist2h2bb,inactive: 0.606
22,GCAGUAGCGACGAAGGAUGTT against 2310020H19Rik,inactive: -1.46
23,GCAUAACCAAGUGUGAUGCTT against Arpm2,inactive: 1.32
24,GGCCGUUUUUUGGCAUCGUTT against Acas2l,inactive: 1.36
25,CCAUGUGCGACCUGAUAAUTT against Cklfsf7,inactive: -0.677
26,CGGACAAAUUGGAUGGUUUTT against Nck1,inactive: -0.418

row,Sequence,z-score
1,GCUUCUUCUGUGAACUUCCTT against Olfr854,inactive: 0.637
2,GACAAGUUCUCAAGUAUCCTT against 1110006O24Rik,inactive: 0.94
3,CUACCUGUUUCCUAGCUUGTT against Etohi2,inactive: -0.486
4,GGUUUUCACCAUAUGCAGCTT against Zfp353,inactive: -0.47
5,GCCUGAAGAGAGUCUUAUCTT against 4930539E08Rik,inactive: -1.39
6,GGUCAAACACAGUUCAAAGTT against 2010004J24Rik,inactive: 0.134
7,GCCACCUACUACGACAACATT against Hoxb3,inactive: 1.07
8,CGGCUUAGUGUAAUUUGCCTT against Diras2,inactive: -0.136
9,GGACCUCAAAGACAGAGAUTT against Armet,inactive: -1.61
10,GAAAUGCAAGACUCUGCACTT against 1700020L24Rik,inactive: -0.283
11,GGUUCUGUGAAUUCUUUAATT against U90926,inactive: 0.921
12,GCAGACAGCACUAUGUCUUTT against 6430401A05Rik,inactive: 0.467
13,GGUCAAUGUAGCUCCCAUGTT against D630048P19Rik,inactive: 0.446
14,GCGAAUUACUAUGUACCUATT against Sqrdl,inactive: -1.39
15,GGCUGGAAAAAAUUUUGUCTT against Sip1,inactive: 0.199
16,GGACAUUGCUUUUCACUAUTT against 4930447C04Rik,inactive: 0.797
17,GCAUGCUGAUGGACUGUAATT against 2610510H01Rik,inactive: -0.58
18,GCCCUGUACCUUUUAGCUUTT against Olfr704,inactive: -0.715
19,CCAGGAGUACAAACACUAUTT against AI586015,inactive: 0.284
20,GGAAAUACUGCUGACCAUUTT against 2410127L17Rik,inactive: 0.33
21,CCUUAAUGGUAAAUCCUCGTT against V1rh4,inactive: 0.549
22,AGUGAAACUAAACUGGAGUTT against 2610318N02Rik,inactive: -0.587
23,CCAGGAUCCUGUUUCUGACTT against AF067061,inactive: 0.782
24,GCCACUUUACCAAACGACATT against Pglyrp2,inactive: 0.264
25,GACGGUGGGACUCACUGUUTT against Ors6,inactive: -0.403

# Given as tab-separated lines: entries from further up.
row	Sequence	z-score
1	GGUAGAAUUGUGAUCUCAGTT against Bcdo2	inactive: -0.24
26	GCACUAAUCAACUUAAGUCTT against Zfpn1a5	inactive: 0.715
8	GGGUUACCAGUUUGAGGAGTT against Pex5	inactive: 0.817
